Test: peptide synthesis
Conditions: for step yield: late stage modification step; for conjugation yield: conjugation step
[1] = TFA salt (deprotected products), AcOH salt (some protected intermediates)
[2] = over 2 steps, TFA salt (deprotected products), AcOH salt (some protected intermediates)

Substance | step yield [1] [%] | other results
Allyl N,N′-Diallyloxycarbonyl[6-N-Acetato-glucosamino]vancomycin | 33 | –
Allyl N,N′-Dialoc-(6-N-thiocarbonyl Methylamino Glucose) Vancomycin | 96 | –
Allyl N,N′-Dialoc-glucose-C6-N4-(4-chlorophenyl)benzyl Vancomycin | – | step yield (based on aldehyde, TFA salt (deprotected products), AcOH salt (some protected intermediates)): 61%, based on aldehyde
Allyl N,N′-Dialoc-glucose-C6-N-4-(4-chlorophenyl)benzoyl Vancomycin | 82 | –
Benzyl CBZ-tri-O-Methyl p-Methoxybenzyl Diacetate Vancomycin Aglycone | 97 | –
Di-{N,N′-Diallyloxycarbonyl-O-allyl-6-glucosamino Vancomycin}—C(O)CH2—(O) | – | conjugation yield [1]: 20%
Glucose-C6-N-2-quinoxaloyl-vancosamine-N-4-(4-chlorophenyl)benzyl Vancomycin | 30 | –
Glucose-C6-N-4-(4-chlorophenyl)benzyl Vancosamine-N4-4-(4-chlorophenyl)benzyl Vancomycin | 15 | –
Glucose-C6-N-5-(4-chlorophenyl)furan-1-methylene-vancosamine-N-4-(4-chlorophenyl)benzyl Vancomycin | 28 | –
Glucose-C6-N-thiocarbonyl Methylamino Vancomycin | 17 | –
N,N′-Diallyloxycarbonyl-methoxy-glycine-deleucine Aspartatic Acid Vancomycin | – | step yield [2]: 62% over 2 steps
N,N′-Diallyloxycarbonyl-methoxy-glycine-deleucine Glucosamino-aspartate Vancomycin | – | conjugation yield [2]: 60% over 2 steps
N,N′-Dialoc-allyl-glucose-C6-5-chloro-2-hydroxy-benzylamine Vancomycin | – | step yield (AcOH salt): 31%
N-Allyloxycarbonyl-N′-methoxyglycine Vancomycin | 62 | –
N-Allyloxycarbonyl-N′-methoxyglycine [N-Acetato-vancosamino] Vancomycin | 54 | –
N-Allyloxycarbonyl-methoxy-glycine-deleucine Vancomycin | – | step yield (over 3 steps, TFA salt (deprotected products), AcOH salt (some protected intermediates)): 58% over 3 steps
Vancosamine-N-4-(4-chlorophenyl)benzyl, Glucose-C6-S-3-amino-5-mercapto-1,2,4-triazole Vancomycin | 90 | –
[2-(2,2-Dimethylacetoacetyl)-3,4,6-tri-O-benzyl-β-D-glucopyranoside]-N-CBZ-tetra-O-benzyl-diacetato Vancomycin Aglycone | – | conjugation yield [1]: 17%
vancomycin | – | step yield (TFA salt): 75%

Reference: patent US6710168B1 (The Trustees of the University of Princeton, priority 1999, dated 2004)
